No constants are given. Whether binding was seen depends on the method and setting. In cells and extracts the contact can be indirect. Some binding calls cover weakened binding; strength is not graded here.
Key:
[1] = target: FMRP translation factor (D. melanogaster (endogenous in S2 and Kc cells)) (UniProt Q9NFU0); experiment: co-IP; cytoplasmic fraction of male S2 cells; IP with mouse anti-FMRP (5B6) magnetic beads, 1 hr at 4°C, washes in 50 mM Tris, 500 mM NaCl, 0.1% NP-40; western blot for CLAMP; IgG-mouse as negative control
[2] = target: FMRP translation factor (D. melanogaster (endogenous in S2 and Kc cells)) (UniProt Q9NFU0); experiment: condition: only cytoplasmic fraction of female Kc cells; co-IP; cytoplasmic fraction of female Kc cells; IP with mouse anti-FMRP (5B6) magnetic beads, 1 hr at 4°C, washes in 50 mM Tris, 500 mM NaCl, 0.1% NP-40; western blot for CLAMP; IgG-mouse as negative control

Amino acid sequences for entries named in this document (tags omitted).
UniProt Q9NFU0: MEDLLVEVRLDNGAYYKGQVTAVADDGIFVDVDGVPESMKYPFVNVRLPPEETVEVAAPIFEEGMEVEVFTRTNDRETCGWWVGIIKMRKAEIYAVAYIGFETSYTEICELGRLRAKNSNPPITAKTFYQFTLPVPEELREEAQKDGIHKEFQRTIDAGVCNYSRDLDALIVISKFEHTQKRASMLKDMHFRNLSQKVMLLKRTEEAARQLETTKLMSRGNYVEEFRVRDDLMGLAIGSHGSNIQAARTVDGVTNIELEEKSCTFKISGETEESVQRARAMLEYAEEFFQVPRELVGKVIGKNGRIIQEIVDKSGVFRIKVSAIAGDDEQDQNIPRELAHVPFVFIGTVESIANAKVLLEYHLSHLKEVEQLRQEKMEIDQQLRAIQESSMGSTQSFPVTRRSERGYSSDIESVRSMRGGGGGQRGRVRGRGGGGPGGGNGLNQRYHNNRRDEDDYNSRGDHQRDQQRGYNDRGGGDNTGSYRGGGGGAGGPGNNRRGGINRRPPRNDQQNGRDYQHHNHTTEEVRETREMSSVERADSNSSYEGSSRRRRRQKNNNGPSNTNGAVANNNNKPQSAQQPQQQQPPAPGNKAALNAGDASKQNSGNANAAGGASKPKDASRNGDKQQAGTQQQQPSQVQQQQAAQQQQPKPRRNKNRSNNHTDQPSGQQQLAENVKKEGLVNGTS

binding [1]: binds
binding [2]: no binding
B1: CLAMP (chromatin-linked adapter for MSL proteins) (protein, UniProt Q9V9N4 1-561)
chain: MEDLTKNIIFTNAINGQPATIQYQTADGTILKQPKIEGQKTEQQPTFYYTTNGNGGTVNLAQLATTDDNKTCYIAQPVGGYNYALVNGMPLNQGAALGIATVDAQGRIQIVNQNKPIAANTISNISFKCDVCSDMFPHLALLNAHKRMHTDGEQQQQQQHNAQAGGDSIAVVSAQGLVQAQNIIGNGQMGQIQIVSSDTLEPVQQSVMQQQQHESKASKCINCGSSMLQQSKRKGPKQVRCESCMQAEQTAQQQQQLFVAQDGQMAHPVQIISTTPQAQAQLQQIVAAQTGGTTPKREASSGSGHHPVKKRNSQQMTKCQKCNGSGVVLVGQHSHASHSGVGGSVKQSVTVKTENPSKPFSCNICGGLFSRYSSLWSHKKLHSGEKNYKCSICGLAFAKAVYLKNHARIHTGEKPYKCQTCGMQFSQSPHLKNHERTHSGERPYVCGVCDKGFARHATLWNHRRIHTGEKPYKCEICGSAFSQAAHLKNHAKVHSGEKPYKCEICSAAFADRFALKRHRGIHQKYGQTAPRQTSSDGMIVHKQEIPDMEDEAQQEVIIGGL
